Data published in patent publication EP2686338B1, “FUNCTIONALIZED BIOMATERIALS FOR TISSUE REGENERATION” (Nanomed3d S.r.l., priority 2011, dated 2018).

How the values were obtained:
murine NSCs = experiment: Phage biopanning (Ph.D.-7 library, three rounds, clone sequencing) against adhering NSCs on Laminin; assay type: cell-based; conditions: after third round; for Internalized phage clones %: internalized clones (IP); for Eluted phage clones %: cell membrane bound phages (MP)
Procedure: (§1) Two days prior cell seeding murine NSCs were mechanically dissociated in order to seed the maximum percentage of stem cells.
NSCs, three million per plate, were seeded over Laminin coated 10 cm Petri dishes (Falcon). After an overnight incubation in 10ml of βFGF supplemented (10 ng/ml) neural basal media, cells were washed with pre-warmed Incubation Medium.
(§2) The Ph.D.-7 phage library was used (New England Biolabs), composed of phage clones with random 7-mer peptides fused to the N-terminal of PIII, a minor coat protein of M13 phage.
(§3) Before biopanning experiments against NSCs in adhesion, the phage library was incubated in a Laminin-coated tissue culture dish in order to remove phages with affinity to the Laminin coated plastic surface (negative selection). Mouse Laminin (10 mL at 25 µg/ml concentration) (Roche) was incubated overnight at 37°C. 10^12 cfu of phages were incubated for one hour at 37°C in pre-warmed Incubation Medium (DMEM supplemented with 0.1% BSA) in Laminin-coated plastic surfaces (setting for adhering NSCs) or plain plastic surfaces (setting for NSCs in suspension). Then incubation Medium and a total volume of five washes of Washing Buffer (DPBS supplemented with 1% BSA and 0.05% Tween-20) were collected and eluted phages were amplified as described in the standard protocol of New England Biolabs.
(§4) 10^12 cfu of the negatively selected phage library were diluted in 10 ml Incubation Medium and pipetted onto the adhering NSCs or NSCs in suspension.
(§5) After 1 hour of incubation at 37°C cells were washed five times with pre-warmed Washing Buffer, cell membrane bound phages (MP) and internalized clones (IP) were recovered from independent duplicates of differentiating progenies by eluting and/or lysing the cells respectively. The cell surface was stripped by a 5 minutes incubation of 5 ml of Glycine Buffer (0.2 M Glycine-HCl supplemented with 1 mg/ml BSA (pH 2.2)) at RT. Eluted Phages were neutralized with 5 ml of 1 M Tris-HCl buffer (pH 8) and amplified.
(§6) Cells were then lysed with 9 ml of Lysing Buffer (0.1% TEA in PBS) for 5 minutes at RT. Internalized phages were neutralized with 1 ml of 1 M Tris-HCl buffer.
(§7) Neutralized phages were titered by infection of Escherichia coli to monitor the selection. Internalized and eluted phages were amplified separately for another round of selection. Three rounds of positive selection were performed. At round number two and three the biopannings of internalized and eluted phages were performed in different cell cultures (but with identical culture conditions) by collecting the phages of interest (i.e. internalized phages from libraries of internalized phages) and discarding the leftovers.
(§8) After the third round of biopanning, phage clones were randomly picked out from the titer plates and sequenced. Thirty phage plaques per each set of phages were randomly picked for sequencing. A small number of clones wasn't successfully sequenced. […] In the case of panning against NSC in suspension the highest consensus was for KLPGWSG (47.36 for MP), GETRAPL (14.28% for IP and 10.52% for MP) and HAIYPRH (28.57% for IP and 5.26% for MP).

[1] = system: NSCs cultured in suspension; experiment: Phage biopanning (Ph.D.-7 library, three rounds, clone sequencing) against NSCs in suspension; assay type: cell-based, murine; conditions: after three rounds; for Eluted phage clones %: cell membrane bound phages (MP); for Internalized phage clones %: internalized clones (IP)
Procedure: as §1, §2, §3, §4, §5, §6, §7, §8

| Substance | Internalized phage clones % (murine NSCs) | Eluted phage clones % (murine NSCs) | further results |
| --- | --- | --- | --- |
| SASHWQI [heptapeptide] | 3.5% | – | – |
| FAQRVPP [heptapeptide] | 53.5% | 62.5% | – |
| GKPMPPM [heptapeptide] | – | – | Eluted phage clones % [1]: 10.52% |
| QHLPRDH [heptapeptide] | 14.2% | 8.3% | – |
| SLPKLPP [heptapeptide] | 3.5% | – | – |
| GETRAPL [heptapeptide] | – | – | Eluted phage clones % [1]: 10.52%; Internalized phage clones % [1]: 14.28% |
| YRMPIWP [heptapeptide] | 3.5% | – | – |
| ALTPWAF [heptapeptide] | – | – | Eluted phage clones % [1]: 10.52% |
| TTTPTTP | – | 4.2% | – |
| KLPGWSG [heptapeptide] | – | – | Eluted phage clones % [1]: 47.36% |
| SSLSVND [heptapeptide] | 10.7% | 4.2% | – |
| TPLSSHS [heptapeptide] | 3.5% | – | – |
| LTTGSGS | – | 4.2% | – |
| TPPFAAW | – | 4.2% | – |
| TAVNSDA | – | 4.2% | – |
| LQAIPRN [heptapeptide] | 3.5% | – | – |
| SILPYPY [heptapeptide] | – | – | Internalized phage clones % [1]: 14.28% |
| YIIPMHD [heptapeptide] | 3.5% | 4.2% | – |
| HAIYPRH [heptapeptide] | – | – | Eluted phage clones % [1]: 5.26%; Internalized phage clones % [1]: 28.57% |
| SSELVTH | – | 4.2% | – |
